Data on 4 substances can be found in patent publication US8133984B2, “Oligonucleotides comprising signalling pairs and hydrophobic nucleotides, stemless beacons, for detection of nucleic acids, methylation status and mutants of nucleic acids” (PENTABASE ApS, priority 2006, dated 2012).

The subject of this data set is Bgal_WT_tar oligo target. In words: Affinity of stemless probes to single stranded oligo target (melt 25-90° C.). It is filed as binding. Particulars: signal at 25 degrees divided by signal at 90 degrees. The text has this:
This example illustrates how stemless beacons comprising hydrophobic modifications of the structure: X—Y-Q where X is a backbone monomer unit linked to the oligo by phosphordiester bonds and of the structure —O—CH2—CH2—O—, Y is a —CH2—O—CH2— linker and Q is 1′-pyrene, will have higher affinity towards a fully complementary target sequence than a probe not comprising said hydrophobic modifications.
It can be seen from FIG. 13 that all stemless beacons have the similar or higher affinity for the complementary oligo nucleotide target compared to the corresponding DNA. Furthermore it can be calculated that all of the stemless beacons presented in this example (exclusive probe—1) have a similar or higher signal-to-noise ratio than the DNA probe without hydrophobic modifications (signal at 25 degrees divided by signal at 90 degrees).
In turn, “5′-Fam A1C CGA CCC AGC GCC 1C BHQ1-3′ [Probe _2]” came in with a Signal-to-noise of 7.26.
Under “5′-Fam ACC G1A CCC AGC 1GC CC BHQ1-3′ [Probe _5]” stands 6.48; under “5′-Fam ACC GA1 CCC AG1 CGC CC BHQ1-3′ [Probe _6]”, 5.99; under “5′-Fam ACC GAC 1CC A1G CGC CC BHQ1-3′ [Probe _7]”, 5.88.
